{"source": "PubChem BioAssay AID1053208 (Peter MacCallum Cancer Centre, 2014)", "screen": "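Genes whose silencing cuts survival of bone tumour cells only with doxorubicin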 (primary screen)", "cells": "mouse osteosarcoma cells, early-passage culture from an engineered mouse model of fibroblastic bone tumour", "knock-down reagent": "siRNA pool against mouse genes, 40 nM", "timing": "about 120 h (48 h before drug, then 72 h with drug)", "conditions": "doxorubicin 100 nM for 72 h, roughly 30-40% inhibitory dose", "detection": "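Viability read as ATP luminescence after 72 h of 100 nM doxorubicin or none, duplicate wells averaged, scaled to non-targeting siRNA, then expressed as robust z-scores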", "scale": "viability z-score with doxorubicin: higher = more viable cells under doxorubicin; viability z-score without drug: higher = more viable cells with knock-down alone", "active means": "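a pool counts as active when its viability z-score with doxorubicin is -2 or below and its z-score without drug lies between -2 and 2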", "note": "Here is an unselected part of about 17,000 reagents tested. 788 of them (4.7%) were called active. 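Calls rest on z-score classes alone; an extra cut-off of viability at most 70% of control was not applied to them.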 Entries without a mark were called inactive. The numbers tell different reagents against one gene apart. Not all columns of the deposit are shown."}
The opening 2 records as a preview:
{"Target gene": "Eri3", "reagent no.": 1, "combined z-score class": "no change with or without drug", "viability z-score with doxorubicin": 0.34, "viability z-score without drug": 0.34}
{"Target gene": "Slc7a2", "reagent no.": 1, "combined z-score class": "no change with or without drug", "viability z-score with doxorubicin": 1.69, "viability z-score without drug": 1.35}

Results, repeating the preview:
{"Target gene": "Eri3", "reagent no.": 1, "combined z-score class": "no change with or without drug", "viability z-score with doxorubicin": 0.34, "viability z-score without drug": 0.34}
{"Target gene": "Slc7a2", "reagent no.": 1, "combined z-score class": "no change with or without drug", "viability z-score with doxorubicin": 1.69, "viability z-score without drug": 1.35}
{"Target gene": "Oaz2", "reagent no.": 1, "combined z-score class": "no change with or without drug", "viability z-score with doxorubicin": -0.67, "viability z-score without drug": -0.17}
{"Target gene": "Slc25a17", "reagent no.": 1, "combined z-score class": "no change with or without drug", "viability z-score with doxorubicin": -0.45, "viability z-score without drug": 0.51}
{"Target gene": "Slc25a17", "reagent no.": 2, "combined z-score class": "no change with or without drug", "viability z-score with doxorubicin": 0.45, "viability z-score without drug": -0.34}
{"Target gene": "Or4x13", "reagent no.": 1, "combined z-score class": "no change with or without drug", "viability z-score with doxorubicin": 0.79, "viability z-score without drug": 0.84}
{"Target gene": "Or4x13", "reagent no.": 2, "combined z-score class": "no change with or without drug", "viability z-score with doxorubicin": 0.9, "viability z-score without drug": -1.18}
{"Target gene": "Yif1a", "reagent no.": 1, "combined z-score class": "low cell count with doxorubicin only (active)", "viability z-score with doxorubicin": -2.14, "viability z-score without drug": -0.67}
{"Target gene": "E130114P18Rik", "reagent no.": 1, "combined z-score class": "no change with or without drug", "viability z-score with doxorubicin": -0.67, "viability z-score without drug": 1.18}
{"Target gene": "Arl2bp", "reagent no.": 1, "combined z-score class": "no change with or without drug", "viability z-score with doxorubicin": 1.8, "viability z-score without drug": 0.34}
{"Target gene": "Sval2", "reagent no.": 1, "combined z-score class": "no change with or without drug", "viability z-score with doxorubicin": 1.8, "viability z-score without drug": 0.67}
{"Target gene": "Eapp", "reagent no.": 1, "combined z-score class": "no change with or without drug", "viability z-score with doxorubicin": 0.9, "viability z-score without drug": 1.85}
{"Target gene": "1700001G17Rik", "reagent no.": 1, "combined z-score class": "low cell count with doxorubicin only (active)", "viability z-score with doxorubicin": -2.25, "viability z-score without drug": -1.52}
{"Target gene": "Psg19", "reagent no.": 1, "combined z-score class": "no change with or without drug", "viability z-score with doxorubicin": -0.45, "viability z-score without drug": -1.01}
{"Target gene": "Actr10", "reagent no.": 1, "combined z-score class": "no change with or without drug", "viability z-score with doxorubicin": 0, "viability z-score without drug": 0.17}
{"Target gene": "Nfam1", "reagent no.": 1, "combined z-score class": "no change with or without drug", "viability z-score with doxorubicin": -0.11, "viability z-score without drug": 0.17}
{"Target gene": "Siah1b", "reagent no.": 1, "combined z-score class": "no change with or without drug", "viability z-score with doxorubicin": -0.22, "viability z-score without drug": 0.51}
{"Target gene": "Slc7a3", "reagent no.": 1, "combined z-score class": "no change with or without drug", "viability z-score with doxorubicin": 0.67, "viability z-score without drug": 0.17}
{"Target gene": "Bcorl1", "reagent no.": 1, "combined z-score class": "no change with or without drug", "viability z-score with doxorubicin": 1.12, "viability z-score without drug": 0.17}
